In patent publication US20230266321A1, “LIVE CELL ENGAGEMENT ASSAY” (Icahn School of Medicine at Mount Sinai, priority 2020, published 2023):
For at least one compound, name, drawing or mass did not settle the structure.

Amino acid sequences for entries named in this document (tags omitted). Residues count along the entry.
UniProt P07949, 29-1114: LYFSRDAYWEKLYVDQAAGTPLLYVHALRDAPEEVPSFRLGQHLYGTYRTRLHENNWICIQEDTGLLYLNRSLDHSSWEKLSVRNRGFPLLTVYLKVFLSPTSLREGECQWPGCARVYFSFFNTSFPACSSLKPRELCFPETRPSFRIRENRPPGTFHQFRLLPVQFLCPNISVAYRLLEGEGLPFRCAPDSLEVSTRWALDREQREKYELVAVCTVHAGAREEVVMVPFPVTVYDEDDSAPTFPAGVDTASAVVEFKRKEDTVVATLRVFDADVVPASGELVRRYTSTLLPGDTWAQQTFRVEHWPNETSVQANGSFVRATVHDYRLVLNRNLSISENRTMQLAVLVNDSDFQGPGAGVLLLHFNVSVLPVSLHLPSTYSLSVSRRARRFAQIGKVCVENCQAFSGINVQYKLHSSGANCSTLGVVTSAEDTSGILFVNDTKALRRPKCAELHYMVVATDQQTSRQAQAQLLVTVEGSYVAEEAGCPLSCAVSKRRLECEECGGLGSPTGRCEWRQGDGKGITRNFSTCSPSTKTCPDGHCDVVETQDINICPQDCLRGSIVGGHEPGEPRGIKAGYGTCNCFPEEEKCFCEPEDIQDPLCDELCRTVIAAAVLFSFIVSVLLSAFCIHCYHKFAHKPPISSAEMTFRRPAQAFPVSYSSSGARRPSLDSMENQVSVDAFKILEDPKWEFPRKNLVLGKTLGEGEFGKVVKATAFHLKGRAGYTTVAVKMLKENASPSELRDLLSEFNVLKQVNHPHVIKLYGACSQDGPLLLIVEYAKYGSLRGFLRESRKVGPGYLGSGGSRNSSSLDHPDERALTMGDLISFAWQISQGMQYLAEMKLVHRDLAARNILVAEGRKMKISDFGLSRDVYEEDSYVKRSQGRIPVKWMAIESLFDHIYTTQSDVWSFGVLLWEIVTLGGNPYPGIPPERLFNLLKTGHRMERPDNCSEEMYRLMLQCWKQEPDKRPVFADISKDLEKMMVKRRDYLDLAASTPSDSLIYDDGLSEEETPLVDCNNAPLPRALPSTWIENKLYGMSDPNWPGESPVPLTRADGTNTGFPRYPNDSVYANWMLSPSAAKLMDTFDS

Legend:
SRC-luc = SRC-luc (Homo sapiens, UniProt P12931); experiment: NanoBRET control kinase SRC-luc; details: 293T cells, tram-bo or tracer K4
RET-luc = RET-luc (Homo sapiens, UniProt P07949); experiment: NanoBRET control kinase RET-luc; details: 293T cells, tram-bo or tracer K5

In the case of `CC(=O)Nc1cccc(-n2c(=O)n(C3CC3)c(=O)c3c(Nc4ccc(I)cc4F)n(C)c(=O)c(C)c32)c1` [trametinib], the “dose response on control SRC-luc” value (SRC-luc) is reported as “no discernible dose response” and the “dose response on control RET-luc” value (RET-luc) is reported as “no discernible dose response”.
